Data reported in paper PMC8446030.
These are yes or no findings as the source states them, for the method shown. In cells and extracts the contact can be indirect. Some binding calls cover weakened binding; strength is not graded here.

Target: T1, SOX9 (human (endogenous in LX-2)), P48436
T1 chain: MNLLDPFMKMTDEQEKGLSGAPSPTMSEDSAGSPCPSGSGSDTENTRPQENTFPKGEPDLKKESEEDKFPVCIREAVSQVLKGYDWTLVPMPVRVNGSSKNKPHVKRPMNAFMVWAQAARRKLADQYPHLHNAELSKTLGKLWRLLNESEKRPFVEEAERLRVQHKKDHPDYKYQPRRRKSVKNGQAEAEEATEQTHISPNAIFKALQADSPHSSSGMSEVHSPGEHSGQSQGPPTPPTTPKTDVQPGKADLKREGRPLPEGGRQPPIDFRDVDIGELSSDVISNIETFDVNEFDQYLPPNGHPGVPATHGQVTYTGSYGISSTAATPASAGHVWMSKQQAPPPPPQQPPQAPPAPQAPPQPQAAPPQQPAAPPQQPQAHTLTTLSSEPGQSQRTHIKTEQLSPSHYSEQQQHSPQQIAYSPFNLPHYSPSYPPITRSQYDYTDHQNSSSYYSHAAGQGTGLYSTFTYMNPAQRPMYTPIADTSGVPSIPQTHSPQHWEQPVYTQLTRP
Assay: co-IP; 1 mg total protein lysate of activated LX-2 cells; IP with rabbit monoclonal anti-β-catenin, mouse monoclonal anti-SOX9 or control IgG, 4 °C 4 h, protein A/G PLUS-Agarose; immunoblot with anti-β-catenin or anti-SOX9
Conditions: remark: other sources report otherwise

binding: binds
B1: β-catenin, P35222 1-781 (protein)
chain: MATQADLMELDMAMEPDRKAAVSHWQQQSYLDSGIHSGATTTAPSLSGKGNPEEEDVDTSQVLYEWEQGFSQSFTQEQVADIDGQYAMTRAQRVRAAMFPETLDEGMQIPSTQFDAAHPTNVQRLAEPSQMLKHAVVNLINYQDDAELATRAIPELTKLLNDEDQVVVNKAAVMVHQLSKKEASRHAIMRSPQMVSAIVRTMQNTNDVETARCTAGTLHNLSHHREGLLAIFKSGGIPALVKMLGSPVDSVLFYAITTLHNLLLHQEGAKMAVRLAGGLQKMVALLNKTNVKFLAITTDCLQILAYGNQESKLIILASGGPQALVNIMRTYTYEKLLWTTSRVLKVLSVCSSNKPAIVEAGGMQALGLHLTDPSQRLVQNCLWTLRNLSDAATKQEGMEGLLGTLVQLLGSDDINVVTCAAGILSNLTCNNYKNKMMVCQVGGIEALVRTVLRAGDREDITEPAICALRHLTSRHQEAEMAQNAVRLHYGLPVVVKLLHPPSHWPLIKATVGLIRNLALCPANHAPLREQGAIPRLVQLLVRAHQDTQRRTSMGGTQQQFVEGVRMEEIVEGCTGALHILARDVHNRIVIRGLNTIPLFVQLLYSPIENIQRVAAGVLCELAQDKEAAEAIEAEGATAPLTELLHSRNEGVATYAAAVLFRMSEDKPQDYKKRLSVELTSSLFRTEPMAWNETADLGLDIGAQGEPLGYRQDDPSYRSFHSGGYGQDALGMDPMMEHEMGGHHPGADYPVDGLPDLGHAQDLMDGLPPGDSNQLAWFDTDL
